Experimental data reported in PubChem BioAssay AID504847 (National Center for Advancing Translational Sciences (NCATS), 2011).
Several values for one entry are separate records, joined by “and”; a condition that tells them apart may be missing. Equal entries are not always repeated. Out of some 400,000 compounds screened, about 3,700 (0.93%) were called active. The inconclusive results got no clear call from the source; some entries with a clear call stand among them for comparison. Calls follow the shape of the dose curve; as a rule, active = well fitted inhibition curve with a large enough effect; inconclusive = small, poorly fitted or top-dose-only effect, or another doubt; inactive = no such curve, though single readings can be large or run the other way. Potencies beside an inconclusive call are fits to weak or partial responses and may not hold up. Some structures have more than one record in an assay (separate samples or runs), and their calls can disagree.

Amino acid sequences for entries named in this document (tags omitted). A change or cut given only in a name is not applied to a line headed by its entry.
UniProt P11473: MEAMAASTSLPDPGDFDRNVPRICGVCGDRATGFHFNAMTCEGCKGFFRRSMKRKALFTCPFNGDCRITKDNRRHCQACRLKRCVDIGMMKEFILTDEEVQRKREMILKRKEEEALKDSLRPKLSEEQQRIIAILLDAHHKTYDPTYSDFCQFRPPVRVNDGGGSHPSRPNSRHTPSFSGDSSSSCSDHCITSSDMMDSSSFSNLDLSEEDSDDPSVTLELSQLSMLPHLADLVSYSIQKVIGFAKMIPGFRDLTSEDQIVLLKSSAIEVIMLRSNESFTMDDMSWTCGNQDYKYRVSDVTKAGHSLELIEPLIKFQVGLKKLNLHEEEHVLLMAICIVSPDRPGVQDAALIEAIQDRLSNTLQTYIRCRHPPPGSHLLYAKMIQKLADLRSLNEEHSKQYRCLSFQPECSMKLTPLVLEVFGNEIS

What follows are compounds tested against Vitamin D3 receptor (Homo sapiens) (UniProt P11473) (assay: Inhibitors of the vitamin D receptor (VDR): qHTS). Details: VDR-SRC2-3 peptide fluorescence polarization, 2 h; max response, negative = inhibition: stronger effect = lower value.
Procedure, shortened: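 Measured by FP: displacement of SRC2-3 coactivator peptide from VDR by library compounds, following a two-hour ambient incubation.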
% is scaled to controls: 0 for no effect and ±100 for the full control effect; potency is read from the fitted curve at half-maximal effect.

SMILES	Potency	max response, negative = inhibition
Cc1c(N2C(=O)/C(=C\C3CC=CCC3)SC2=S)c(=O)n(-c2ccccc2)n1C (stereo not given)	active: 50.1 µM	
COc1ccc(/C=C/c2cc(C(F)(F)F)[nH]c(=O)n2)cc1OC	inconclusive: 35.5 µM [inhibitor, single point]	
CCC(C)(C)C1CCc2c(sc(N)c2C(N)=O)C1 (stereo not given)	inconclusive: 89.1 µM [inhibitor, single point]	
COc1cccc(-c2nnc(NC(=O)c3ccc4ncsc4c3)o2)c1	inconclusive: 1 µM [inhibitor, partial curve, poor fit]	
O=C(c1cc(-c2ccc(F)cc2)on1)N1CCN(c2ccc(F)cc2)CC1	active: 70.8 µM	
CCC(C)CCN1C(N(C)C)=NC[C@@H]1CC(C)C (stereo not given in full)	inconclusive: 100 µM [inhibitor, partial curve, poor fit]	
Cc1ccc(-c2cccc([C@H]3[C@@H]4C=CC[C@@H](C)[C@@H]4C(=O)N3Cc3ccccc3)c2)cc1	inconclusive: 35.5 µM [inhibitor, partial curve]	
CCOC(=O)C(=Cc1ccccc1OC)C(=O)OCC	inconclusive: 25.1 µM [inhibitor, partial curve, poor fit]	
COC(=O)C(NC(=O)CCC(=O)NC(C(=O)OC)c1ccccc1)c1ccccc1 (stereo not given)	inconclusive: 100 µM [inhibitor, single point]	
Clc1cccc(Cl)c1OCCCCN1CCCCC1		inactive: 16.2%
CC(C)(C)C1CCc2onc(C(=O)Nc3sc4c(c3C#N)CCCC4)c2C1 (stereo not given)	inconclusive: 44.7 µM [inhibitor, partial curve, poor fit]	
COc1ccccc1CNC(=O)CSc1ccc(-c2sc(-c3ccccc3)nc2C)nn1		inactive: 6.59%
CN1CC=C2C(C#N)=C(N)C(C#N)(C#N)C(c3cccc(Cl)c3Cl)C2C1 (stereo not given)	inconclusive: 89.1 µM [inhibitor, single point]	
CCC(=O)Nc1nc(N)n(-c2ccccc2)n1		inactive: -6.2%
O=C(c1cccc(F)c1)N1CCC[C@@]2(CCN(c3cccc(-c4ccccc4)c3)C2)C1	active: 44.7 µM	
O=C(OCC(=O)N1CCCCCC1)c1ccc(Cl)c(S(=O)(=O)N2CCCC2)c1	inconclusive: 79.4 µM [inhibitor, partial curve, poor fit]	
COc1cc(C(c2c(C)[nH][nH]c2=O)c2c(C)[nH][nH]c2=O)ccc1OC(=O)c1cccc([N+](=O)[O-])c1	inconclusive: 79.4 µM [inhibitor, partial curve, poor fit]	
COc1cc2[nH]c(=S)nc(NC3CCCCCC3)c2cc1OC	inconclusive: 70.8 µM [inhibitor, single point]	
CCOc1ccccc1NC(=O)C(=O)/C=C(\O)c1cc(OC)ccc1OC	inconclusive: 39.8 µM [inhibitor, single point]	
Cc1ccc(-c2nn(CC(=O)NCc3ccccc3)c3c2cnc2ccc(F)cc23)cc1C		inactive: 11%

Single records, as listed above:
Clc1cccc(Cl)c1OCCCCN1CCCCC1 reads max response, negative = inhibition: inactive: 16.2%
CCC(C)(C)C1CCc2c(sc(N)c2C(N)=O)C1 (stereo not given) reads Potency: inconclusive: 89.1 µM [inhibitor, single point]

Next part:

SMILES	Potency	max response, negative = inhibition
COc1ccc(Cn2nnnc2C(c2cc3cc(C)ccc3[nH]c2=O)N2CCN(C)CC2)cc1 (stereo not given)		inactive: -3.21%
C=C1C(=O)C=C2CN(C(=O)c3ccccc3)[C@@](Cc3ccc(F)cc3)(C(=O)OC)[C@@H]12	inconclusive: 4.47 µM [inhibitor, full curve, poor fit]	
Cc1ccc(-c2ccccc2NC(=O)CS(=O)CC(=O)Nc2ccc(C)c(Cl)c2)o1 (stereo not given)	active: 44.7 µM	
CN(C)c1ccc(C(=O)N2CCNC(=O)C2CC(=O)Nc2ccc(F)cc2)cc1 (stereo not given)	inconclusive: 89.1 µM [inhibitor, single point]	
CCOc1ccc(CNC(=O)Cn2nc(C)c3c(C)n(-c4ccc(C)cc4)nc3c2=O)cc1		inactive: -4.98% and inactive: -19.3%
CC(=O)c1ccc(-n2c(CCC(=O)O)ccc2-c2cccs2)cc1	inconclusive: 56.2 µM [inhibitor, partial curve, poor fit]	
CC(C)CC1=NN2C(=N)/C(=C\c3coc4ccccc4c3=O)C(=O)N=C2S1	active: 79.4 µM	
O=C(O)c1ccc(N/N=C/c2cn(Cc3ccc(F)cc3)c3ccccc23)cc1	inconclusive: 63.1 µM [inhibitor, partial curve, poor fit]	
Cc1ccc(S(=O)(=O)Nc2nc3ccccc3nc2NCC2CCCO2)cc1C (stereo not given)	inconclusive: 100 µM [inhibitor, single point]	
CNC(=O)/C(C#N)=C\c1ccc(CNS(=O)(=O)c2ccc(Cl)cc2)o1	inconclusive: 28.2 µM [inhibitor, single point]	
CCC1Sc2ccc(S(=O)(=O)N3CCN(c4ccccc4)CC3)cc2NC1=O (stereo not given)	inconclusive: 28.2 µM [inhibitor, partial curve, poor fit]	
N#Cc1cccc(Cn2cc(C(F)(F)F)ccc2=O)c1	inconclusive: 89.1 µM [inhibitor, single point]	
CC(=O)N1CCc2cc(Br)cc(S(=O)(=O)N3CCC(C(=O)Nc4ccc(C(C)C)cc4)CC3)c21	inconclusive: 89.1 µM [inhibitor, single point]	
CC(=O)N1CCN(c2ccc(NCc3ccc(Br)o3)cc2)CC1	inconclusive: 89.1 µM [inhibitor, partial curve, poor fit]	
CCCCC1=CC2=C(c3ccco3)C(=O)C(C)(OC(=O)c3ccc(OC)cc3)C(=O)C2=CN1Cc1ccco1 (stereo not given)	inconclusive: 100 µM [inhibitor, single point]	
N#Cc1cc(C(=O)c2cc(F)ccc2O)cn(Cc2ccccc2)c1=O	inconclusive: 89.1 µM [inhibitor, partial curve, poor fit]	
O=C(O)c1cc(N(Cc2ccccc2O)Cc2ccccc2O)ccc1O	inconclusive: 79.4 µM [inhibitor, partial curve, poor fit]	
COc1cccc(Cl)c1NC(=O)N1CCN(c2cc(C)nc3ccccc23)CC1		inactive: -2.57%
CCOc1ccccc1N1CCN(C(=O)c2cn(CC3CCCCC3)nn2)CC1		inactive: -8.16%
Cc1ccc(S(=O)(=O)N2CCC[C@H]2C(=O)OCC(=O)c2ccc3c(c2)NC(=O)CO3)cc1	inconclusive: 31.6 µM [inhibitor, single point]	
